The record followed here is doi:10.1101/2021.03.24.436784.

Assay in all cases: affinity purification with mass spectrometry
Experiment [1] concerns the target T1, Buc-GFP (full length Bucky ball fused to GFP) (zebrafish) (UniProt H0WFA5).
T1 sequence: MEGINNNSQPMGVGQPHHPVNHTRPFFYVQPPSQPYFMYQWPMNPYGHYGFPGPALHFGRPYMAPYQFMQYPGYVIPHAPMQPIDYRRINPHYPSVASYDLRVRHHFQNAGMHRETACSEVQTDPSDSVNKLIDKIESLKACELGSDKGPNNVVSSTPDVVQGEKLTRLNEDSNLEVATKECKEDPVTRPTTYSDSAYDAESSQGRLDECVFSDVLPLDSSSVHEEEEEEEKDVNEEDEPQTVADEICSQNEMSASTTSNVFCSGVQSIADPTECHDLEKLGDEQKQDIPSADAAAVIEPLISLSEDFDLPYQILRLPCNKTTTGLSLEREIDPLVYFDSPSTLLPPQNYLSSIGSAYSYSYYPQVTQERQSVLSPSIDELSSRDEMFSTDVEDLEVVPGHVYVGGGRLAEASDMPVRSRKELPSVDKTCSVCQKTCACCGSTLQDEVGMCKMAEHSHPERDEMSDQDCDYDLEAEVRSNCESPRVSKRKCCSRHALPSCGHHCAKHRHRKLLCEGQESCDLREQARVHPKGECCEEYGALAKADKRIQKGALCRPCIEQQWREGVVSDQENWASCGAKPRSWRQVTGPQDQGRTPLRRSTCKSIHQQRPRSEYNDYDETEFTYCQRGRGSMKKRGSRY

In experiment [2] the target is T2, BucLoc-GFP (Bucky ball aa 11-88 fused to GFP) (zebrafish) (UniProt H0WFA5).
T2 sequence: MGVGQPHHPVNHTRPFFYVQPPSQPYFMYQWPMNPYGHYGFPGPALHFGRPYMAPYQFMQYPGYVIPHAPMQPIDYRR

Experiment [3] deals with T1, Buc-GFP (full length Bucky ball fused to GFP) (zebrafish). This is another data set of the same source.
Experiment [4] concerns the target T2, BucLoc-GFP (Bucky ball aa 11-88 fused to GFP) (zebrafish). The source holds these as a separate data set.

Like-named read-outs stand apart in the source and are kept apart here. These are yes or no findings as the source states them, for the method shown. In cells and extracts the contact can be indirect. Here binding means that the protein was enriched with, or labelled near, the bait; the list need not be complete. For some assays here: No binding means not detected with the bait. Where a sequence is shown, tags or fusion partners need not be part of it.

With “Cldn-a (zebrafish (endogenous in embryos))”, the binding result in experiment [1] was “no binding”.

Take “Myosin Light Chain (zebrafish (endogenous in embryos))”: the binding entry in experiment [1] and in experiment [2] was “binds” in each case.

B1: Claudin-d (Cldn-d) (protein, UniProt Q9YH91 1-208)
chain: MASVGLQLLATVLAIIGWLGEIVICALPMWKVTAFIGNNIVTAQIFWEGLWMNCVQQSTGQMQCKVYDSMLALPQDLQAARALVVISIIVTFMGVFLTIAGGKCTNCIEDQDAKAKVVVAAGVFFLVGGILCLIPVCWSANSVIKDFYNPTLSDAQKRELGASLFIGWCASGLLLLGGALLCCQCPKNEGRAYSVKYSAPRSAPGAYV
As for B1, the binding entry in experiment [3] and in experiment [4] was “binds” in each case.
